Measurements taken from paper doi:10.1101/2024.08.31.610651.
Positions count from the first letter of the chain named. Read-outs that look alike come from different tables or passages of the source. No constants are given. Whether binding was seen depends on the method and setting. Binding seen in cells or lysates may run through a third protein. Some entries that bind do so weakly or less than the wild type. For some assays here: Sequences can lack the tags named with a protein. Blank lines part the entries; values can stand above or below the molecule they belong to.

Amino acid sequences for entries named in this document (tags omitted). Residues count along the entry.
UniProt O00206, residues 24-839: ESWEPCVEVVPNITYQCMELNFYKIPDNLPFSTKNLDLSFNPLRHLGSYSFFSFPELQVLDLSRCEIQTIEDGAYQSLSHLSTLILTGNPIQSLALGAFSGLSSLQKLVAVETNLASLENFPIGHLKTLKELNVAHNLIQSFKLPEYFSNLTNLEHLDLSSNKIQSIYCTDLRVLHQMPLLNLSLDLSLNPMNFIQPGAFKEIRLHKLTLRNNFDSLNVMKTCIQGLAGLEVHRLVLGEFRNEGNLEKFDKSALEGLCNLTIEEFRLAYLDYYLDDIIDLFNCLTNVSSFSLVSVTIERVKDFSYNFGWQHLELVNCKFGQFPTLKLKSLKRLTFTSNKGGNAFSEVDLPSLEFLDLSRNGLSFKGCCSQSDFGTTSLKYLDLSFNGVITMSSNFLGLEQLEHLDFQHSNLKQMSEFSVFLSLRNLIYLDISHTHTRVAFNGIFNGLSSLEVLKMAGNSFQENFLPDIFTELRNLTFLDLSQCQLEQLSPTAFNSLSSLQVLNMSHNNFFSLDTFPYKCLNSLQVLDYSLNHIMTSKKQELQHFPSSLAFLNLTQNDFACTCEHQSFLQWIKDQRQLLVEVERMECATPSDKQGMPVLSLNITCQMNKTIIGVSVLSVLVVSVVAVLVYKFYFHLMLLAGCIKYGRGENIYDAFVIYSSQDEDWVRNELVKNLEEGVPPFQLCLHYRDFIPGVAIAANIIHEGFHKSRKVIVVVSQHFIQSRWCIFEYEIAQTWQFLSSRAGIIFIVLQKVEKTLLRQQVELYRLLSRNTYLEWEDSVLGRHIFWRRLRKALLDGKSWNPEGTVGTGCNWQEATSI
UniProt Q9BYM8: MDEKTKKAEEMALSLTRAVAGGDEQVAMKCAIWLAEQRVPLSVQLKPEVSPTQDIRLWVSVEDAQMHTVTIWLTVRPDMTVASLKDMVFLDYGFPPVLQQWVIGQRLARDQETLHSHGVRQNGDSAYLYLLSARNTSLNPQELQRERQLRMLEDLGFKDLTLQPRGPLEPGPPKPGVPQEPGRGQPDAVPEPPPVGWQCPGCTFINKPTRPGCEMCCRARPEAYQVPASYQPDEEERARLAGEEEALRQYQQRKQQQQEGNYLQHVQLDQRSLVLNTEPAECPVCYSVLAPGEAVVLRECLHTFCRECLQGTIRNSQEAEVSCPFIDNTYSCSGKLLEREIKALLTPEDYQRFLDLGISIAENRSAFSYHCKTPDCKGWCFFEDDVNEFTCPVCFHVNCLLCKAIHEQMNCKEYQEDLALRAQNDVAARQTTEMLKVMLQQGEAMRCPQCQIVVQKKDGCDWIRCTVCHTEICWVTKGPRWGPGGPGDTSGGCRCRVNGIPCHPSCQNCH
UniProt Q13489: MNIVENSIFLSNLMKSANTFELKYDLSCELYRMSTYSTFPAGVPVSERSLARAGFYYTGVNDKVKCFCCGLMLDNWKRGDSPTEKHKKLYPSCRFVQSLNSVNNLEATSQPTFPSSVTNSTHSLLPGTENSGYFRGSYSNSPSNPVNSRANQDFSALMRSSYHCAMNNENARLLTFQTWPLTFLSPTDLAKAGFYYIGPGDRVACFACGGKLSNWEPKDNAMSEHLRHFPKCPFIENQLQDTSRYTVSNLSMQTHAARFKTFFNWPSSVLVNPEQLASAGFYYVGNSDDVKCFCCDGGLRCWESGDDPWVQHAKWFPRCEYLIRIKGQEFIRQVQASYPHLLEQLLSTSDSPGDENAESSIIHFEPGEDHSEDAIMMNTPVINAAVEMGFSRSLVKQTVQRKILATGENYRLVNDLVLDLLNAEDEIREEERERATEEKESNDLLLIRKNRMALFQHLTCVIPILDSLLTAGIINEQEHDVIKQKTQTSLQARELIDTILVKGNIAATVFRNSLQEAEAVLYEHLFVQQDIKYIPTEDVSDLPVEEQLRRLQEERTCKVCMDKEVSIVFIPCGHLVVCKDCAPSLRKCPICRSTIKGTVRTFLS
UniProt O08863: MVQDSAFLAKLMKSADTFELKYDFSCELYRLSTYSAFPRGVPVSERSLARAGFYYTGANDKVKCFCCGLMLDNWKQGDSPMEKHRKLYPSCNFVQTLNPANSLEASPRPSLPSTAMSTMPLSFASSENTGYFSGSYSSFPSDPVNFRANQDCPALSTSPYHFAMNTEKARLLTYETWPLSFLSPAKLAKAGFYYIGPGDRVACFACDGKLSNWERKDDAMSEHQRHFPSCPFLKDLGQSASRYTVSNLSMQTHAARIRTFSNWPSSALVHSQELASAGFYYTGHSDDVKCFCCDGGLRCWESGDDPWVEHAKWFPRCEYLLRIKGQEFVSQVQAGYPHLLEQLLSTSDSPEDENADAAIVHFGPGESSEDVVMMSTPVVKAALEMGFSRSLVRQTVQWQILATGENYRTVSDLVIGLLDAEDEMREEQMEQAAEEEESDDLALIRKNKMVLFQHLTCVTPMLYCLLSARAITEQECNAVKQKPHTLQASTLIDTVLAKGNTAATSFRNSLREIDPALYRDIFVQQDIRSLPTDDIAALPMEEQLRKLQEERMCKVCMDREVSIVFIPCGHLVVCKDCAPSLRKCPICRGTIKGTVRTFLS

Legend:
Assay in all cases: co-IP
[1] = target: T1, TRAF1 V203A, endogenous locus mutated in THP-1 cells (human (endogenous in THP-1)) (UniProt Q13077)
T1 sequence: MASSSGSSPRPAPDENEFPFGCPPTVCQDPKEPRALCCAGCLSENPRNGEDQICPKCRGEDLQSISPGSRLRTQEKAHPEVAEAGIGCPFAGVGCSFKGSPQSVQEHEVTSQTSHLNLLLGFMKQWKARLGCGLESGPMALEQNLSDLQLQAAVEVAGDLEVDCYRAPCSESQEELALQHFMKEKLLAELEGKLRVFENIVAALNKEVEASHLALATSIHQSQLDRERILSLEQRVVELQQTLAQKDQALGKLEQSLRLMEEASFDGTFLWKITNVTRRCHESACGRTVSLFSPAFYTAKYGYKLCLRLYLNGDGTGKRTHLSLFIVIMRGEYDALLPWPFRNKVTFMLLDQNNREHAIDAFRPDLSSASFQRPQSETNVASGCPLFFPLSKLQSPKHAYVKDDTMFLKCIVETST

[2] = target: T2, TRAF1, endogenous, wildtype THP-1 cells (human (endogenous in THP-1)) (UniProt Q13077)
T2 sequence: T1 sequence with A203V

[3] = target: T3, mouse TRAF1-Flag, wildtype (mouse) (UniProt P39428)
T3 sequence: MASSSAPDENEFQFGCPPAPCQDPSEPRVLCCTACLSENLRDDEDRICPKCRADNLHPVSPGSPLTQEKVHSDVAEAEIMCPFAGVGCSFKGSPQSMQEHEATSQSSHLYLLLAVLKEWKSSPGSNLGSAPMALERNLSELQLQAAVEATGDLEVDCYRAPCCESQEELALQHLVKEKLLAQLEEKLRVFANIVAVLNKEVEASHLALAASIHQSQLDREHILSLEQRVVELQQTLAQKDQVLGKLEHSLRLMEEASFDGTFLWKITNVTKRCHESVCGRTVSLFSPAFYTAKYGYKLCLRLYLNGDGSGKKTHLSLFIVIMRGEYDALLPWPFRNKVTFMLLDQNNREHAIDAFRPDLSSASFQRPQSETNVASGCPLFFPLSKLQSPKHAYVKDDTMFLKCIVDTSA

[4] = target: T4, mouse TRAF1-Flag V196A (mouse) (UniProt P39428)
T4 sequence: T3 sequence with V196A

[5] = target: T5, mouse TRAF1-Flag V196E (mouse) (UniProt P39428)
T5 sequence: T3 sequence with V196E

[6] = target: T6, TRAF1 V203A, overexpressed (human) (UniProt Q13077)
T6 sequence: T1 sequence

[7] = target: T7, TRAF1 E207A, overexpressed (human) (UniProt Q13077)
T7 sequence: T1 sequence with A203V, E207A

[8] = target: T8, TRAF1 (tumor necrosis factor receptor-associated factor 1), wildtype, overexpressed (human) (UniProt Q13077)
T8 sequence: T1 sequence with A203V

[9] = target: T9, TRAF1 E209A, overexpressed (human) (UniProt Q13077)
T9 sequence: T1 sequence with A203V, E209A

[10] = target: TLR4, endogenous, THP-1 cells (human (endogenous in THP-1)) (UniProt O00206)
[11] = target: T3, mouse TRAF1-Flag, wildtype (mouse); remark: listed apart in the source
[12] = target: T4, mouse TRAF1-Flag V196A (mouse); remark: listed apart in the source
[13] = target: T5, mouse TRAF1-Flag V196E (mouse); remark: listed apart in the source

Molecule: HOIL-1, overexpressed with human TRAF1 constructs (from UniProt Q9BYM8 1-510)
binding [6]: binds
binding [7]: binds
binding [8]: binds

B1: TRAF1, endogenous, wildtype THP-1 cells (protein, UniProt Q13077 1-416)
chain: T1 sequence with A203V
binding [10]: binds

B2: HOIL-1, co-expressed with mouse TRAF1 constructs (protein, UniProt Q9WUB0 1-508)
chain: MDEKTKKAEEMALSLARAVAGGDEQAAIKYATWLAEQRVPLRVQVKPEVSPTQDIRLCVSVEDAYMHTVTIWLTVRPDMTVASLKDMVFLDYGFPPSLQQWVVGQRLARDQETLHSHGIRRNGDGAYLYLLSARNTSLNPQELQRQRQLRMLEDLGFKDLTLQSRGPLEPVLPKPRTNQEPGQPDAAPESPPVGWQCPGCTFINKPTRPGCEMCCRARPETYQIPASYQPDEEERARLAGEEEALRQYQQRKQQQQEGNYLQHVQLEQRSLVLNTEPTECPVCYSVLAPGEAVVLRECLHTFCRECLQGTIRNSQEAEVACPFIDSTYSCPGKLLEREIRALLSPEDYQRFLDLGVSIAENRSTLSYHCKTPDCRGWCFFEDDVNEFTCPVCTRVNCLLCKAIHEHMNCREYQDDLALRAQNDVAARQTTEMLKVMLQQGEAMHCPQCRIVVQKKDGCDWIRCTVCHTEICWVTKGPRWGPGGPGDTSGGCRCRVNGIPCHPSCQNCH
binding [11]: binds
binding [12]: binds
binding [13]: binds

The next lines start with results.

binding [1]: no binding
binding [2]: binds
Molecule: cIAP2, endogenous, THP-1 cells (from UniProt Q13489 1-604)

binding [3]: binds
binding [4]: no binding
binding [5]: no binding
Molecule: mouse cIAP2-Flag-Myc (from UniProt O08863 1-600)

binding [9]: binds
Molecule: cIAP2 (cellular inhibitor of apoptosis 2), overexpressed (from UniProt Q13489 1-604)
binding [8]: binds
